Some results come without the dose or concentration used.
Tests used:
myocardium = experiment: HD PET versus standard reconstruction of imaging agent 1 perfusion images; format: in vivo, human
myocardial blood flow = experiment: streamlined quantification of absolute myocardial blood flow at rest and stress; format: in vivo, human; details: for SMBF: peak adenosine

**Q.** How did the “average contrast between myocardial maximum and the 22 defects” value (myocardium; HD PET) turn out when `CC(C)(C)n1ncc(OCc2ccc(COCC[18F])cc2)c(Cl)c1=O` [imaging agent 1, 2-t-butyl-4-chloro-5-[4-(2-(^18F)fluoroethoxymethyl)-benzyloxy]-2H-pyridazin-3-1] was run?
**A.** The value was 4.0±1.7.

**Q.** And the “average wall thickness, basal” value (myocardium; HD PET)?
**A.** Its value is 14.7±2.8 mm.

**Q.** And the “average contrast between myocardial maximum and the 22 defects” value (myocardium; SR)?
**A.** Its value is 3.2±1.2.

**Q.** What about the CFR (myocardial blood flow; CAD Reversible defect) of the same molecule?
**A.** Its CFR is 1.71 ± 0.41.

**Q.** And the RMBF (myocardial blood flow; CAD Reversible defect)?
**A.** Its RMBF is 0.69 ± 0.22.

**Q.** And the CFR (myocardial blood flow; Normal territory, LAD)?
**A.** The CFR was 3.25 ± 0.25.

**Q.** And the RMBF (myocardial blood flow; Normal territory, LAD)?
**A.** Its RMBF is 0.76 ± 0.15.

**Q.** What about the SMBF (myocardial blood flow; Normal territory, LAD) of the same molecule?
**A.** The SMBF was 2.48 ± 0.50.

**Q.** What about the CFR (myocardial blood flow; Normal territory, LCX) of the same molecule?
**A.** The CFR was 3.60 ± 0.86.

**Q.** What about the RMBF (myocardial blood flow; Normal territory, LCX) of the same molecule?
**A.** Its RMBF is 0.74 ± 0.10.

**Q.** And the SMBF (myocardial blood flow; Normal territory, LCX)?
**A.** Its SMBF is 2.66 ± 0.62.

**Q.** And the CFR (myocardial blood flow; Normal territory, RCA)?
**A.** The CFR was 3.72 ± 0.49.

**Q.** And the RMBF (myocardial blood flow; Normal territory, RCA)?
**A.** Its RMBF is 0.75 ± 0.17.

**Q.** What about the SMBF (myocardial blood flow; Normal territory, RCA) of the same molecule?
**A.** The SMBF was 2.78 ± 0.43.

Source: patent US10842892B2, “Methods and apparatus for synthesizing imaging agents, and intermediates thereof” (Lantheus Medical Imaging, Inc., priority 2010, dated 2020)
